Test results: the supplement of paper PMC10849652
Some of the results follow.

Amino acid sequences for entries named in this document (tags omitted). A change or cut given only in a name is not applied to a line headed by its entry.
UniProt Q92925, whole entry, looked up: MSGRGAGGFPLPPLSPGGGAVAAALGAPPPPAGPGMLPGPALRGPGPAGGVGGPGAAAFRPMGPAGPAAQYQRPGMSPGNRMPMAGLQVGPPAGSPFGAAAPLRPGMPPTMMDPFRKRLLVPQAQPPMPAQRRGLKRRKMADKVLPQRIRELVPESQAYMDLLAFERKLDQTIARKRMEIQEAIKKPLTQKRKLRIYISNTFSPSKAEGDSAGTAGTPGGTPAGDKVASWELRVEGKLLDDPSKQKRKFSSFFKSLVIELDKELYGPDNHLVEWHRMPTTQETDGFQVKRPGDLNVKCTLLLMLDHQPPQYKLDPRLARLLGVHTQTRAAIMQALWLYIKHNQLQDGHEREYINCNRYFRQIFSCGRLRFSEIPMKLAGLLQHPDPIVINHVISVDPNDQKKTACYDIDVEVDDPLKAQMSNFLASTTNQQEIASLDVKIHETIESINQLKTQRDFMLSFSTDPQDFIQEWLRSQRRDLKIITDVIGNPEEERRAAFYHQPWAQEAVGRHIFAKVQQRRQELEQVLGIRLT
UniProt Q9BT81: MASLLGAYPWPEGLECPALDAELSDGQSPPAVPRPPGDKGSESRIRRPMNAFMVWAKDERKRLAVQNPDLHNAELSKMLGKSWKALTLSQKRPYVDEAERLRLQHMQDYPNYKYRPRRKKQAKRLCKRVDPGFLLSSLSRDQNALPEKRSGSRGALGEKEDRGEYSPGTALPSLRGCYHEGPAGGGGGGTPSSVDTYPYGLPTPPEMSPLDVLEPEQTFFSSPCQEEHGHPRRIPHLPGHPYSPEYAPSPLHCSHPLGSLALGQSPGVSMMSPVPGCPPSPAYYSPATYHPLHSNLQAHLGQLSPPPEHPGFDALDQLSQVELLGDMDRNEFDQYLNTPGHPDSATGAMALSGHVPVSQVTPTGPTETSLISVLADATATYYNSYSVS
UniProt Q9NZC9: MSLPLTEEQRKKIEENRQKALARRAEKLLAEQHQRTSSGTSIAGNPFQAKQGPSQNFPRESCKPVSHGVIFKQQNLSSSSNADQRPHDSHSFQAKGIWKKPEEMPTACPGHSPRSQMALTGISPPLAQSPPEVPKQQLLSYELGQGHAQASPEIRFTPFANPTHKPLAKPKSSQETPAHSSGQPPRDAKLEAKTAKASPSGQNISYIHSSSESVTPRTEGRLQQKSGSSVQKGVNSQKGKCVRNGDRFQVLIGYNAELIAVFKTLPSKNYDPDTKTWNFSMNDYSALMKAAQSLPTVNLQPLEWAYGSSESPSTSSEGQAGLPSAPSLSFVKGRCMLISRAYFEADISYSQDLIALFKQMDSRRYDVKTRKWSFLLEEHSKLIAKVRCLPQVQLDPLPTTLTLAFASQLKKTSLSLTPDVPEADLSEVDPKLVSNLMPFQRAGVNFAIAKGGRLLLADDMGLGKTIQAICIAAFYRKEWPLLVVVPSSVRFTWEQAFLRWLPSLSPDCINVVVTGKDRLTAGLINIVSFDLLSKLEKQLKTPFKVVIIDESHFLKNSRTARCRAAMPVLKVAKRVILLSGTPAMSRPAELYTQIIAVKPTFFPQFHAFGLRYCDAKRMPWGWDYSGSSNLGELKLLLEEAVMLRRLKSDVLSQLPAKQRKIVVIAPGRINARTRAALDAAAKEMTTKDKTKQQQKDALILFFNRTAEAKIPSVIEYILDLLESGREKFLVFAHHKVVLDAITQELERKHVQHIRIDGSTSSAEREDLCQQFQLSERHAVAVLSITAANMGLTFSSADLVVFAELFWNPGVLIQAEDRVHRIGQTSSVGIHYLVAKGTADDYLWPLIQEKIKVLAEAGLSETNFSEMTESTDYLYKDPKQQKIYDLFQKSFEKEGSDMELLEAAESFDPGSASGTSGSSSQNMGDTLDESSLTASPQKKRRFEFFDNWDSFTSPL
UniProt O00161: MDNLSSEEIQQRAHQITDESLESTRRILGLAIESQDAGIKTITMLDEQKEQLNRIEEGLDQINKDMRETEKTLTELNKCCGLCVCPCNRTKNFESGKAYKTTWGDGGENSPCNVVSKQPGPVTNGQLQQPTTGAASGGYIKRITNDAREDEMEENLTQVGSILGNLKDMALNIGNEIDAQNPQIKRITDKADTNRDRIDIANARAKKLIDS
UniProt Q9Y5W8: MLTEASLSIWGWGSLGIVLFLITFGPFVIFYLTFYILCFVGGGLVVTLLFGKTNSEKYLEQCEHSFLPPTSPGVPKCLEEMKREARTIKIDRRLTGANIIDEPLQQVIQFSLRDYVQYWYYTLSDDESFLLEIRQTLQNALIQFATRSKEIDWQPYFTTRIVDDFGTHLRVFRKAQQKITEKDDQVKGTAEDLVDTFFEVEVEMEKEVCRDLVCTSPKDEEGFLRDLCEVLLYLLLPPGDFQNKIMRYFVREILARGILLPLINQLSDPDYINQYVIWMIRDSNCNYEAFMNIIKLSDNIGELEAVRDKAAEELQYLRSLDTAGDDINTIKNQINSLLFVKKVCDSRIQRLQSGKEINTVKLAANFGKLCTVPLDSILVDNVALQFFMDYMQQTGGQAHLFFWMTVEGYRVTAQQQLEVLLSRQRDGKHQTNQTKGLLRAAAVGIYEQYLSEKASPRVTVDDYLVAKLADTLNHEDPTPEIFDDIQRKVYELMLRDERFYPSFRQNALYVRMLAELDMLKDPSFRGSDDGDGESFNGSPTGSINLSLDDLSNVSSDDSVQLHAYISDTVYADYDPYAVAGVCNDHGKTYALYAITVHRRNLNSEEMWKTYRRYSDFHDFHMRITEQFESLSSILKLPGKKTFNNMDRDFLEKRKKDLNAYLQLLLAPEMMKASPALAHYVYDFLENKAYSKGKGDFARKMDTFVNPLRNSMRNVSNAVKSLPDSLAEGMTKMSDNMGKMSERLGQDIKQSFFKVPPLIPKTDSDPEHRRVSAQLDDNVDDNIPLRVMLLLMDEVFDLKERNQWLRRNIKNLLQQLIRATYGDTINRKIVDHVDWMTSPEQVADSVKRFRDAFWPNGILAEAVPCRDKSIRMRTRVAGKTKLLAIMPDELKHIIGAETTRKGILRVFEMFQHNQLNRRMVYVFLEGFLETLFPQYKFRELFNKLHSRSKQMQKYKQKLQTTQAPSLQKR
UniProt P51531, whole entry, looked up: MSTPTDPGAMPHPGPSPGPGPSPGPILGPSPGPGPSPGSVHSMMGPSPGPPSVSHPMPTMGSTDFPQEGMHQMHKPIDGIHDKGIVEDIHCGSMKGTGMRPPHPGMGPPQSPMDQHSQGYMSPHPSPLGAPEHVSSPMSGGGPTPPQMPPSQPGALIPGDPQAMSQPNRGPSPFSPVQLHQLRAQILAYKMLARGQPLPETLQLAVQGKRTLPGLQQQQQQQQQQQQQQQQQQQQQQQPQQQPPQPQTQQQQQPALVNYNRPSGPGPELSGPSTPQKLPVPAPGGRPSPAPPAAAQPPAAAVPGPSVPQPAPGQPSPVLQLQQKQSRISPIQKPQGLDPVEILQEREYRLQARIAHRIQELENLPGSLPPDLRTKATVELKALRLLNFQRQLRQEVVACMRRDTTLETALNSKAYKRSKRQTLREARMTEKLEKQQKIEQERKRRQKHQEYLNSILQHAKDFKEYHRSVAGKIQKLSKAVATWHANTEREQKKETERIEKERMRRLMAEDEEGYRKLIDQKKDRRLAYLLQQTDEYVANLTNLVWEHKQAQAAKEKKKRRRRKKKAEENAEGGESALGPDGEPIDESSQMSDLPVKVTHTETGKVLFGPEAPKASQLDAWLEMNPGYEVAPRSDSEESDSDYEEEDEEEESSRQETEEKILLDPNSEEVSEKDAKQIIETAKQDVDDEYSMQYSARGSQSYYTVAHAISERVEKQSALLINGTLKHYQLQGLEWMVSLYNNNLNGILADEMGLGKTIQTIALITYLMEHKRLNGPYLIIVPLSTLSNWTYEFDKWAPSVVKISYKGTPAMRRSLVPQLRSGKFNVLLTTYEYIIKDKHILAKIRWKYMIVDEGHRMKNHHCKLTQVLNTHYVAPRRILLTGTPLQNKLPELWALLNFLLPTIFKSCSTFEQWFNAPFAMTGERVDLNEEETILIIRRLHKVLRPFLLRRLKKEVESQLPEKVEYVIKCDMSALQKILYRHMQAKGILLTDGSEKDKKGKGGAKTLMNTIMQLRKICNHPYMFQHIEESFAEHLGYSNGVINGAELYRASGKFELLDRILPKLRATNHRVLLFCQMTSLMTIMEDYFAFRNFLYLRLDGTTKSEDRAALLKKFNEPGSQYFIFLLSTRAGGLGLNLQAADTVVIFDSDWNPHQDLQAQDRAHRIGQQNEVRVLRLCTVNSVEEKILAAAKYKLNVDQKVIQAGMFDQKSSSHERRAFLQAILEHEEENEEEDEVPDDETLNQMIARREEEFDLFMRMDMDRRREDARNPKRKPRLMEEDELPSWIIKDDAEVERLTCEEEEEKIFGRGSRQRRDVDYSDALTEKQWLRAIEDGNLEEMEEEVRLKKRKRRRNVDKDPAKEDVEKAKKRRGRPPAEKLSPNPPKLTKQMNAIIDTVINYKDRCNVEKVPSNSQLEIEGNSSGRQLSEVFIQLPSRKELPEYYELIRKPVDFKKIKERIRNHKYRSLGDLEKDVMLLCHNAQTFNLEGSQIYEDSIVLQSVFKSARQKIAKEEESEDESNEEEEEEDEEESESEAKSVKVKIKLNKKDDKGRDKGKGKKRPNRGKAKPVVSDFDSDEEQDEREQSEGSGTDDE
UniProt Q8WVI0: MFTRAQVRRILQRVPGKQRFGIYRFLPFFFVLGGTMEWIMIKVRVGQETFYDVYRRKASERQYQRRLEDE
UniProt Q5SQN1: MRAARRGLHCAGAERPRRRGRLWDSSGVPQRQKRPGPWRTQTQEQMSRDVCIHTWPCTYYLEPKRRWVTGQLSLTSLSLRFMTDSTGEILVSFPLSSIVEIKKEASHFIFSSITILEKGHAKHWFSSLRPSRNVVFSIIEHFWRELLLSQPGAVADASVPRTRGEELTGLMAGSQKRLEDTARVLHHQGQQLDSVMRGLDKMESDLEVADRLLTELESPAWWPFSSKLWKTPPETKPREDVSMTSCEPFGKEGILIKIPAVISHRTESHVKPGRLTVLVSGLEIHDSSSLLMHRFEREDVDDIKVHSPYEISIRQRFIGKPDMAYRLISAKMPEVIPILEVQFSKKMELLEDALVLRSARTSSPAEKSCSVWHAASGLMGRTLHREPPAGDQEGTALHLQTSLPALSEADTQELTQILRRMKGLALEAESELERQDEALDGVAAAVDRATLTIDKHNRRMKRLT
UniProt O60504: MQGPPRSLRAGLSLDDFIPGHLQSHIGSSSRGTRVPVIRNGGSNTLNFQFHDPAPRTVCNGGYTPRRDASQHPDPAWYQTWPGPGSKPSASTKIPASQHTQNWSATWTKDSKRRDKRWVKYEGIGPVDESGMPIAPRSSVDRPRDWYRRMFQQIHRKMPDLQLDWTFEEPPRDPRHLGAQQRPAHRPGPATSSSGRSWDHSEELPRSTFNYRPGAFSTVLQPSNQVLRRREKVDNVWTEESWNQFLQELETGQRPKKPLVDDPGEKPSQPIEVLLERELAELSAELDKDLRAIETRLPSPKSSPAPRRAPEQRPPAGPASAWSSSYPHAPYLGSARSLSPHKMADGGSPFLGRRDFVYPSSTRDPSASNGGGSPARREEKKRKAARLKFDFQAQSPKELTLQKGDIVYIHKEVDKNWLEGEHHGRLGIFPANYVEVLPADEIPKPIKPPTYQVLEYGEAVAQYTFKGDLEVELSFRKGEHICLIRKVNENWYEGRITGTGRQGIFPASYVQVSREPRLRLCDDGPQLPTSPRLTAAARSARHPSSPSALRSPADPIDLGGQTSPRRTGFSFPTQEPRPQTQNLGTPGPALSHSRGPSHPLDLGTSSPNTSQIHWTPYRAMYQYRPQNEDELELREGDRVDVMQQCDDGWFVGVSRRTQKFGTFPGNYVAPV
UniProt Q96RF0: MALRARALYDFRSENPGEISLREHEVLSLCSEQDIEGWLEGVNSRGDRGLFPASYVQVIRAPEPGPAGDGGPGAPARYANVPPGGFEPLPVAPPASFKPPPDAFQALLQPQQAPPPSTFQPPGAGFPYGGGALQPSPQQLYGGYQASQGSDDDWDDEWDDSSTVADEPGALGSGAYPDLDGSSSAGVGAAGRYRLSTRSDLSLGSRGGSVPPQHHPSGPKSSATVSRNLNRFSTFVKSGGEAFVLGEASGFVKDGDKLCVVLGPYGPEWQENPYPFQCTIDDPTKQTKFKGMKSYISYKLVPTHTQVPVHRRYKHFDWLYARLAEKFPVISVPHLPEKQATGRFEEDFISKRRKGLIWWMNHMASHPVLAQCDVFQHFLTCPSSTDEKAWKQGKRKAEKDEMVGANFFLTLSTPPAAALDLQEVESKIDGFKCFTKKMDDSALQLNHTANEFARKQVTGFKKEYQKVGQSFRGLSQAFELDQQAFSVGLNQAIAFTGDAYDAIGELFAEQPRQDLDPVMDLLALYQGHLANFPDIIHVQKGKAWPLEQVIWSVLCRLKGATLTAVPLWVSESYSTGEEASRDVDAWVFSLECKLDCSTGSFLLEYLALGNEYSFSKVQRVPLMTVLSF
UniProt O75971: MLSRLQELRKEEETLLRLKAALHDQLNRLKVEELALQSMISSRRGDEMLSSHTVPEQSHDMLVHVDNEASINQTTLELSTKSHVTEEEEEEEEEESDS

compound: O=C(O)c1ccc2c(c1)nc(Nc1cccc(Cl)c1)c1ccncc12 [silmitasertib]; test: log2 fold change, soluble protein after heating vs DMSO (PISA); higher = thermal stabilisation; K562 cells, 10 uM, 30 min; active = over 0.2 and 3.5 SD of the protein, either way, in both replicates (recomputed)
Method in brief: (§1)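 Thermal stability values are relative to control samples and come from duplicates. They are expressed as log2 fold changes. For measurement, K562 cells (2×10^6 cells/mL) received 10 μM compound for 30 min, and aliquots were heated for 3 min over 48°C-58°C, pooled, and extracted at 4°C in PBS with 0.5% NP-40. Soluble protein, the supernatant after 21,000xg for 90 min, was quantified by TMTpro 16plex LC-MS/MS with equalised channel sums.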

log2 fold change, inactive:
SMARCD1 (UniProt Q96GM5) 0.023
SMARCD2 (UniProt Q92925) -0.298
SNRPD2 (UniProt K7EJB5) 0.073
SMPD4 isoform 2 (UniProt Q9NXE4) -0.058
SNX16 (UniProt P57768) 0.029
SOX7 isoform 2 (UniProt Q9BT81) 0.289
SMUG1 (UniProt Q53HV7) 0.03
SOX6 (UniProt P35712) 0.027
SMARCAL1 (UniProt Q9NZC9) 0.02
SMIM13 (UniProt P0DJ93) 0.029
SNAP23 isoform 2 (UniProt O00161) 0.151
SNX13 (UniProt Q9Y5W8) 0.257
SMARCA2 (UniProt P51531) -0.033
SMIM4 (UniProt Q8WVI0) 0.106

compound: O=C1NC(=O)C(c2cnc3ccccn23)=C1c1cn2c3c(cc(F)cc13)CN(C(=O)N1CCCCC1)CC2; test: as above
Method in brief: as §1

log2 fold change, inactive:
SNAP47 (UniProt Q5SQN1) 0.103
SNX2 isoform 2 (UniProt O60749) -0.183
SMG7 isoform 4 (UniProt Q92540) -0.037
SMTN isoform 6 (UniProt P53814) 0.098
SNX27 (UniProt Q96L92) 0.161
SORBS3 (UniProt O60504) -0.313
SNX16 (UniProt P57768) -0.123
SMPDL3A (UniProt Q92484) 0.029
SMG6 (UniProt Q86US8) 0.196
SOX7 isoform 2 (UniProt Q9BT81) 0.243
SNX30 (UniProt Q5VWJ9) 0.24
SNX18 (UniProt Q96RF0) -0.073
SNX19 (UniProt Q92543) -0.011
SNAPC5 (UniProt O75971) -0.03
SLC9B2 (UniProt Q86UD5) 0.028
SNAP23 isoform 2 (UniProt O00161) 0.114
SNX13 (UniProt Q9Y5W8) -0.006
SMIM4 (UniProt Q8WVI0) 0.296
